The structures appear in SMILES notation. The list does not hold the whole screen: it gathers tests that were run many times, whatever their T/C, doses with no T/C, and many T/C values between a quarter and a half above the control. Other doses and runs of a compound stand elsewhere. T/C gives the treated animals as a percentage of the vehicle group. Some doses have a count of surviving animals in place of a T/C: the source files T/C as zero there, which appears to mark a toxic dose or a test without result, not a measured value. Some doses without a T/C left all or most animals alive at the check, yet need not have been tolerated: survival well below the control is almost never listed, so the zero probably covers shortened survival too. Counts of survivors are from the toxicity check (mostly the fifth day) where no day follows; animals may have died later. Schedule codes are those of the source, taken here to give the interval after Q, in days (D) or hours (H), and the number of doses after X. For survival time, the PubChem record calls one and a half times the control and up active, and a quarter to a half above the control has no call in these data; cut-offs in other NCI protocols can differ. Some T/C values are followed by the survivors on the day toxicity was checked, most often the fifth; where none is given, no animal had died by that day.

For the experiment, the system named is CD2F1 mice, L1210 leukemia ip, survival T/C. Kind of experiment: NCI In Vivo Anticancer Drug Screen. Data for tumor model L1210 Leukemia (intraperitoneal) in CD2F1 (CDF1) mice. The note with it: higher T/C = longer survival. In short, it runs like this:
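Transplantable tumor in mice; compound-treated vs vehicle-treated groups. Read-out = treated/control ratio of the measured endpoint.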

[1] abbreviates: T/C endpoint: mean survival time, dose: 100.0 mg/kg/injection, schedule: Q01DX009 (ip), vehicle: saline with Tween-80.
The mark [2] stands for this setting: T/C endpoint: mean survival time, dose: 100.0 mg/kg/injection, schedule: Q04DX003 (ip), vehicle: saline with Tween-80.
[3] abbreviates: T/C endpoint: mean survival time, dose: 200.0 mg/kg/injection, schedule: Q01DX009 (ip), vehicle: saline with Tween-80.
Setting [4] is: T/C endpoint: mean survival time, dose: 100.0 mg/kg/injection, schedule: Q01DX009 (ip), vehicle: saline.
[5] abbreviates: T/C endpoint: mean survival time, dose: 200.0 mg/kg/injection, schedule: Q04DX003 (ip), vehicle: saline with Tween-80.
The mark [6] stands for this setting: T/C endpoint: mean survival time, dose: 400.0 mg/kg/injection, schedule: Q04DX003 (ip), vehicle: saline with Tween-80.
Setting [7] is: T/C endpoint: mean survival time, dose: 400.0 mg/kg/injection, schedule: Q01DX009 (ip), vehicle: saline with Tween-80.
[8] abbreviates: T/C endpoint: mean survival time, dose: 300.0 mg/kg/injection, schedule: Q01DX001 (ip), vehicle: saline.
[9] abbreviates: T/C endpoint: mean survival time, dose: 400.0 mg/kg/injection, schedule: Q01DX001 (ip), vehicle: saline.

Consider `Cc1c2ccc3ccccc3c2c[n+]2ccccc12`, for which the survivor count is, setting by setting: (T/C endpoint: mean survival time, dose: 20.0 mg/kg/injection, schedule: Q01DX009 (ip), vehicle: Klucel (hydroxypropylcellulose) (HPC)) 1 of 6; (T/C endpoint: mean survival time, dose: 40.0 mg/kg/injection, schedule: Q01DX009 (ip), vehicle: Klucel (hydroxypropylcellulose) (HPC)) 0 of 6.

`O=C(CSCC(=O)c1ccccc1)c1ccccc1`: the survivor count is 3 of 3 (T/C endpoint: mean survival time, dose: 100.0 mg/kg/injection, schedule: Q04DX002 (ip), vehicle: Klucel (hydroxypropylcellulose) (HPC)) and 3 of 3 (T/C endpoint: mean survival time, dose: 200.0 mg/kg/injection, schedule: Q04DX002 (ip), vehicle: Klucel (hydroxypropylcellulose) (HPC)).

Take `CCCCCCCCCCCCCCCC[n+]1cccc(C(=O)NCO)c1`: the survivor count was 3 of 6 (T/C endpoint: mean survival time, dose: 50.0 mg/kg/injection, schedule: Q01DX009 (ip), vehicle: saline with Tween-80); 0 of 6 under setting [1]; 0 of 6 under setting [2]; 0 of 6 under setting [3].

With `CC1(C)N=C(N)N=C(N)N1c1cccc(C(C#N)CCCc2ccccc2)c1` (stereo unspecified), the survivor count by setting is: (T/C endpoint: mean survival time, dose: 50.0 mg/kg/injection, schedule: Q01DX009 (ip), vehicle: Klucel (hydroxypropylcellulose) (HPC)) 1 of 3; (T/C endpoint: mean survival time, dose: 100.0 mg/kg/injection, schedule: Q01DX009 (ip), vehicle: Klucel (hydroxypropylcellulose) (HPC)) 0 of 3; (T/C endpoint: mean survival time, dose: 200.0 mg/kg/injection, schedule: Q01DX009 (ip), vehicle: Klucel (hydroxypropylcellulose) (HPC)) 0 of 3.

For `COC(=O)c1cccnc1C(=O)O`, the survivor count by setting is: under setting [4], 5 of 6; (T/C endpoint: mean survival time, dose: 200.0 mg/kg/injection, schedule: Q01DX009 (ip), vehicle: saline) 3 of 6; (T/C endpoint: mean survival time, dose: 400.0 mg/kg/injection, schedule: Q01DX009 (ip), vehicle: saline) 2 of 6.

Regarding `CC[N+](CC)=c1ccc2nc3c(cc(N)c4ccccc43)oc-2c1`, the survivor count by setting is: (T/C endpoint: mean survival time, dose: 25.0 mg/kg/injection, schedule: Q01DX009 (ip), vehicle: saline sonified) 2 of 6; under setting [2], 0 of 6; under setting [5], 0 of 6; under setting [6], 0 of 6.

For the compound `O=C(O)c1c2c(nc3c(Cl)cccc13)-c1ccccc1C2`, the survivor count under setting [7] was 2 of 6.

On to `CC1(C)C=CC(C)(C)c2c(NS(=O)(=O)c3ccccc3)ccc(NS(=O)(=O)c3ccccc3)c21`, for which the survivor count under setting [5] is recorded as 6 of 6.

In the case of `COc1cccc(/C(C)=N\NC(=O)c2ccccc2)c1`, the survivor count under setting [5] is reported as 4 of 6 and the survivor count under setting [6] is 0 of 6.

Regarding `CC(C)=C/C(C)=C(/C#N)C(=O)OC(C)C`, the survivor count under setting [8] is given as 2 of 6.

With `CC1(C)CN(c2ccccc2)N(CO)C1=O`, the survivor count (T/C endpoint: mean survival time, dose: 100.0 mg/kg/injection, schedule: Q04DX003 (ip), vehicle: saline) is 0 of 3; the survivor count (T/C endpoint: mean survival time, dose: 200.0 mg/kg/injection, schedule: Q04DX003 (ip), vehicle: saline) is 0 of 3; the survivor count (T/C endpoint: mean survival time, dose: 400.0 mg/kg/injection, schedule: Q04DX003 (ip), vehicle: saline) is recorded as 0 of 3.

Take `C[C@H](C[P+](c1ccccc1)(c1ccccc1)c1ccccc1)[C@](OC(=O)c1ccccc1)(C(=O)c1ccccc1)c1ccccc1`: the survivor count runs as follows: (T/C endpoint: mean survival time, dose: 10.0 mg/kg/injection, schedule: Q01DX001 (ip), vehicle: saline with Tween-80) 3 of 6; (T/C endpoint: mean survival time, dose: 20.0 mg/kg/injection, schedule: Q01DX001 (ip), vehicle: saline with Tween-80) 0 of 6.

For `c1ccc(C(c2ccccc2)n2ccnc2)cc1`, the survivor count under setting [8] was 2 of 6.

For the compound `Cc1n[nH]c2ccc([N+](=O)[O-])cc2c1=O`, the survivor count is, setting by setting: under setting [3], 5 of 6; under setting [7], 3 of 6.

In the case of `CC(C)(C)c1cc2c3c(c1)Oc1cc(C(C)(C)C)cc4c1C3(O)c1c(cc(C(C)(C)C)cc1O4)O2`, the survivor count by setting is: (T/C endpoint: median survival time, dose: 25.0 mg/kg/injection, schedule: Q01DX009 (ip), vehicle: Klucel (hydroxypropylcellulose) (HPC)) 1 of 6; (T/C endpoint: median survival time, dose: 50.0 mg/kg/injection, schedule: Q01DX009 (ip), vehicle: Klucel (hydroxypropylcellulose) (HPC)) 0 of 6.

Turning to `C#CC(C)O` (stereo unspecified), the survivor count by setting is: under setting [1], 1 of 6; under setting [4], 0 of 6; under setting [3], 0 of 6; under setting [7], 0 of 6.

As for `Cc1c([N+](=O)[O-])cc(C(C)(C)C)c(OC(=S)N(C)C)c1[N+](=O)[O-]`, the survivor count is on record as 2 of 3 (T/C endpoint: mean survival time, dose: 100.0 mg/kg/injection, schedule: Q04DX002 (ip), vehicle: saline with Tween-80); 3 of 3 (T/C endpoint: mean survival time, dose: 200.0 mg/kg/injection, schedule: Q04DX002 (ip), vehicle: saline with Tween-80); 0 of 3 (T/C endpoint: mean survival time, dose: 400.0 mg/kg/injection, schedule: Q04DX002 (ip), vehicle: saline with Tween-80).

On to `OCC1OC(n2cnc3c(NCCc4ccccc4)ncnc32)C(O)C1O` (stereo unspecified), for which the survivor count is, setting by setting: (T/C endpoint: mean survival time, dose: 100.0 mg/kg/injection, schedule: Q01DX005 (ip), vehicle: other) 3 of 6; (T/C endpoint: mean survival time, dose: 200.0 mg/kg/injection, schedule: Q01DX005 (ip), vehicle: other) 1 of 6.

Take `CC1(C)CCC(C#N)=C1N`: the survivor count is listed as 4 of 6 under setting [2], 0 of 6 under setting [5] and 0 of 6 under setting [6].

Turning to `Nc1nc(SCC(=O)c2ccccc2)c2[nH]cnc2n1`, the T/C reads like this: (T/C endpoint: mean survival time, dose: 264.0 mg/kg/injection, schedule: Q04DX003 (ip), vehicle: saline with Tween-80) 134 % of control; (T/C endpoint: mean survival time, dose: 400.0 mg/kg/injection, schedule: Q04DX003 (ip), vehicle: saline sonified) 143 % of control; under setting [6], 145 % of control.

Regarding `CCCCCCCCCC[n+]1ccc(C(N)=O)cc1`, the survivor count is on record as 3 of 6 under setting [2], 0 of 6 under setting [5] and 0 of 6 under setting [6].

As for `CN(CCC#N)Cc1cc(C(C)(C)C)cc(-c2ccccc2)c1O`, the survivor count under setting [7] is 6 of 6.

As for `Cc1ccc(Cl)cc1NC(=O)c1ccc([N+](=O)[O-])cc1`, the survivor count runs as follows: under setting [5], 6 of 6; under setting [6], 6 of 6.

For the compound `CN(N=O)C(=O)NCC1CCC(CNC(=O)N(C)N=O)CC1` (stereo unspecified), the survivor count was 0 of 6 (T/C endpoint: mean survival time, dose: 600.0 mg/kg/injection, schedule: Q01DX001 (ip), vehicle: carboxymethylcellulose (CMC)); 0 of 6 (T/C endpoint: mean survival time, dose: 800.0 mg/kg/injection, schedule: Q01DX001 (ip), vehicle: carboxymethylcellulose (CMC)); 1 of 6 (T/C endpoint: mean survival time, dose: 1000.0 mg/kg/injection, schedule: Q01DX001 (ip), vehicle: carboxymethylcellulose (CMC)).

Consider `O=C(O)/C=C(/Br)C(=O)O`, for which, under setting [9], the survivor count is given as 3 of 6.

For the compound `O=C([S-])N1CCCCC1.O=C([S-])N1CCCCC1.[Ni+2]`, the survivor count by setting is: under setting [2], 6 of 6; under setting [5], 5 of 6; under setting [6], 1 of 6.

Take `C[N+]1(C)CCC(=O)CC1`: the survivor count was 1 of 6 under setting [3] and 0 of 6 under setting [7].

Consider `Cc1cccc(NC(=O)/C=C/C(=O)O)c1`, for which the survivor count under setting [7] was 6 of 6.

`Nc1cccc2cnccc12`: the survivor count under setting [7] is on record as 2 of 6.

As to `Cc1nc(N=C(N)N)nc2ccc(Cl)cc12`, the survivor count is, setting by setting: (T/C endpoint: mean survival time, dose: 37.5 mg/kg/injection, schedule: Q01DX009 (ip), vehicle: saline) 4 of 6; (T/C endpoint: mean survival time, dose: 75.0 mg/kg/injection, schedule: Q01DX009 (ip), vehicle: saline) 2 of 6.

`CCOC(=O)c1c(C)[nH]oc1=O`: the survivor count is, setting by setting: under setting [3], 1 of 6; under setting [7], 3 of 6.

Regarding `CC1=CC(=O)C(c2ccc(O)cc2O)=CC1=O`, the survivor count is, setting by setting: under setting [2], 4 of 6; under setting [5], 0 of 6; under setting [6], 0 of 6.

As to `[Ni+2].[S-]Cc1ccccc1.[S-]Cc1ccccc1`, the survivor count under setting [9] is 2 of 6.

In the case of `O=c1[nH]c(=O)n(C2CC(O)C(CO)O2)cc1I` (stereo unspecified), the T/C was 136 % of control (T/C endpoint: mean survival time, dose: 125.0 mg/kg/injection, schedule: Q01DX009 (ip), vehicle: saline) and 148 % of control [5 of 6 alive] (T/C endpoint: mean survival time, dose: 250.0 mg/kg/injection, schedule: Q01DX009 (ip), vehicle: saline).

Turning to `COc1ccc(NC(=O)Nc2ccc(Br)cc2)cc1`, the survivor count under setting [6] is listed as 5 of 6.

(Values after PubChem BioAssay AID256 (DTP/NCI, 2004).)
